The results in this text go back to article PMC8010718, “Direct coupling of oligomerization and oligomerization-driven endocytosis of the dopamine transporter to its conformational mechanics and activity” (The Journal of Biological Chemistry, 2021).

No constants are given. Whether binding was seen depends on the method and setting. For part of these data: Binding seen in cells or lysates may run through a third protein. Some binding calls cover weakened binding; strength is not graded here.

For test [1], the target named is CFP-DAT and YFP-DAT (two differently tagged copies of DAT, co-expressed) (UniProt Q01959). The experiment in a line: FRET or BRET; sensitized FRET microscopy from CFP to YFP in living PAE cells co-expressing CFP-DAT and YFP-DAT; vehicle, AL3, AL4 or AL8 (20 μM, 90 min, 37 °C); imaging at room temperature. (In BRET a luciferase serves as donor, and the signal depends on an acceptor being close.)

The target of test [2] is TM4-9 mutant of YFP-HA-DAT (I248F, V249T, L458F, L459G) (human) (UniProt Q01959). The experiment in a line: SDS-resistant oligomers on SDS-PAGE and Western blot; PAE cells stably expressing the tagged transporter, incubated with vehicle (DMSO), AIM-100 or ALs (20 μM, 2 h, 37 °C), with or without cocaine; lysis in TGH with 1% deoxycholate; Laemmli buffer 5 min 95 °C; 7.5% SDS-PAGE; GFP antibody. (Immunoblotting shows a protein as a band on a membrane.)

In test [3] the target is YFP-HA-ΔN-DAT (DAT lacking the N-terminal residues 1-65) (human) (UniProt Q01959). The description is as above.

As to “CFP-DAT and YFP-DAT (two differently tagged copies of DAT, co-expressed) (from UniProt Q01959 1-620)”, the binding entry in test [1] is “binds”.

As for “TM4-9 mutant of YFP-HA-DAT (I248F, V249T, L458F, L459G) (from UniProt Q01959 1-620)”, the binding result in test [2] was “binds”.

Turning to “YFP-HA-ΔN-DAT (DAT lacking the N-terminal residues 1-65) (from UniProt Q01959 66-620) (domain or fragment)”, in test [3], the binding entry is given as “binds”.
